# Primary screen of a compound library

The chains behind the UniProt entries cited, without tags or fusion partners. Residues count along the entry.
UniProt A4I591, 1-473: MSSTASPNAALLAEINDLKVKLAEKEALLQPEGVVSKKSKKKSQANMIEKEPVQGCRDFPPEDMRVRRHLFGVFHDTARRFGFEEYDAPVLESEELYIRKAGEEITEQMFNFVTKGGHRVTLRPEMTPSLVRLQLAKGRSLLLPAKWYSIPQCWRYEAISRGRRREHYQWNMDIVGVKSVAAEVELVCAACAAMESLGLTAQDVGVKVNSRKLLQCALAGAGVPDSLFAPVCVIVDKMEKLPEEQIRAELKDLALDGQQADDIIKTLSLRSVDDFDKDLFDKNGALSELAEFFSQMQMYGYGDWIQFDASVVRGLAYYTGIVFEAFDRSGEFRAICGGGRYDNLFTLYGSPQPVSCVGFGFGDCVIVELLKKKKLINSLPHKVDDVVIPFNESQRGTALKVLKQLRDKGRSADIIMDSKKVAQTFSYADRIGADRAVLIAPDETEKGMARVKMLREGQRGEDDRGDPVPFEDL
UniProt Q8IDJ8, 1-583: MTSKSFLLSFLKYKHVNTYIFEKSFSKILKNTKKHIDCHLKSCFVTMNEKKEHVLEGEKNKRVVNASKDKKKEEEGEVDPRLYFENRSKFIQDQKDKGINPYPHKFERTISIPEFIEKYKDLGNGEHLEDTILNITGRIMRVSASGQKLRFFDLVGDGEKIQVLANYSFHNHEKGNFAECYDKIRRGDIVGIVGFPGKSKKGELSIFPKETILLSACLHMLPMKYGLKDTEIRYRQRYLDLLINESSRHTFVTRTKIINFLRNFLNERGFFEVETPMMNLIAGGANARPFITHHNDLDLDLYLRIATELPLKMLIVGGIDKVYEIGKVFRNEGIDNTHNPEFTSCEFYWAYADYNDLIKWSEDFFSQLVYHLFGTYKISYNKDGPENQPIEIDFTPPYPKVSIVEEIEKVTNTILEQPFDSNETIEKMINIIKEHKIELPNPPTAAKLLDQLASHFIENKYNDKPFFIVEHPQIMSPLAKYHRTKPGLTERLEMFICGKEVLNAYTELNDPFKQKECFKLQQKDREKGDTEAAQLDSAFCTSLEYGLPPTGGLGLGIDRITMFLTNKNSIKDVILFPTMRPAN
UniProt Q4DA54, 1-478: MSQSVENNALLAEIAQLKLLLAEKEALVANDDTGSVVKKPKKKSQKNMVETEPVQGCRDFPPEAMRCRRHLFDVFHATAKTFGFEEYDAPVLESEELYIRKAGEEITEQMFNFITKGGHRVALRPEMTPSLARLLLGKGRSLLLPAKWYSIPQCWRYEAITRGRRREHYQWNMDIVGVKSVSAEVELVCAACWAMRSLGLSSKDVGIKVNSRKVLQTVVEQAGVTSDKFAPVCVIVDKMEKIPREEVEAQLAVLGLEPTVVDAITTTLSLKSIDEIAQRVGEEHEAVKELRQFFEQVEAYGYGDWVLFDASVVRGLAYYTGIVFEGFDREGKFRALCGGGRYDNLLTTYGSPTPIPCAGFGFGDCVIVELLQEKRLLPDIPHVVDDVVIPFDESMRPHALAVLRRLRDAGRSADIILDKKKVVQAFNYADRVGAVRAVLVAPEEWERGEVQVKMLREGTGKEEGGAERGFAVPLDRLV

LiHisRS: 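Enzyme assay of histidyl-tRNA synthetase; the read-out is not stated. Target: Histidine-tRNA ligase, Leishmania infantum (UniProt A4I591). Tested at 30 µM. Higher reads as stronger inhibition (inferred: compounds with an IC50 in retests scored well above the rest). The assay is labelled LdHisRS but filed under L. infantum. Of about 69,000 compounds tested this way, about 410 (0.6%) reached 50% or more in at least one test.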
PfKRS1: 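Lysine-tRNA ligase, Plasmodium falciparum 3D7 (UniProt Q8IDJ8). Enzyme assay of the cytosolic lysyl-tRNA synthetase in 384-well plates, read by luminescence. Compounds at 30 µM. Direction is inferred from only a few compounds that gave an IC50; most scored high, so higher reads as stronger inhibition. Size under these conditions: about 69,000 compounds, about 49 of them at 50% or above in at least one test.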
TcHisRS: 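Enzyme assay of histidyl-tRNA synthetase; the read-out is not stated. Target: Histidine-tRNA ligase, Trypanosoma cruzi CL Brener (UniProt Q4DA54). Compounds at 30 µM. Higher reads as stronger inhibition (inferred: compounds with an IC50 in retests scored well above the rest). About 69,000 compounds were tested under these conditions; 0.045% (about 31) showed 50% or more at least once.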

Values are the deposited “Percent Effect”, in %.
How 0% and 100% were set is not recorded. Most values in the screen are low, and negative values occur.
This is an unselected part of the compounds tested.

Compound | LiHisRS | PfKRS1 | TcHisRS
Cc1ccccc1C(C(=O)NCCS(C)(=O)=O)N(C)C (configuration not stated) | 9.89% | 3.143% | 5.155%
CN(Cc1nnc(C2CC2)o1)Cc1ccccc1N1CCOCC1 | 1.149% | 1.623% | -2.062%
COc1cc(CNCCn2cccn2)c2c(c1)CC(C)O2 (configuration not stated) | 15.07% | 0.5171% | -2.956%
CC(C)CNC(=O)Cn1cc(C(N)=O)c(-c2ccccc2)n1 | 5.479% | 4.753% | -5.464%
CCCNC(=O)CN1CCOC(c2ccc(Br)cc2)C1 (configuration not stated) | 12.07% | 5.805% | 3.665%
CC(C)N(C)C(=O)c1ccc(Cl)c(NC(=O)CCN2C(=O)CCC2=O)c1 | 14.29% | 4.774% | 1.538%
CC(C)c1noc(CCCC(=O)Nc2cccc(F)c2)n1 | 9.735% | 5.051% | 1.327%
CNS(=O)(=O)c1ccccc1N1CCN(C(=O)C(C)C)CC1 | -9.524% | 2.913% | 0%
CCCC(=O)NCCc1cc(NC)nc(-c2ccccn2)n1 | 12.59% | -1.027% | 3.955%
O=C([C@H]1CCCO1)N1CCc2ncnc(C3CC3)c2CC1 | 21.1% | 4.607% | 10.1%
CCN1CCCC(C)(C(=O)NCc2nnnn2-c2ccccc2)C1 (configuration not stated) | 22.45% | 3.48% | 13%
O=c1n(CCn2cccc2)nc(C2CCNCC2)n1Cc1ccccc1 | 11.11% | 7.428% | 13.27%
CC(C)CS(=O)(=O)CCNc1ncccn1 | 19.05% | 6.525% | 4.615%
O=C(c1ccc(OCC2CC2)nc1)N1CCCC(n2cncn2)C1 (configuration not stated) | 4.255% | 3.095% | 6.107%
Cc1cc(NC(=O)C(C)Oc2ccc3c(c2)OCO3)no1 (configuration not stated) | 40.71% | 8.565% | 3.509%
Cc1cc(F)ccc1-c1cc(NCCO)nc2[nH]ccc12 | 24.29% | -0.07018% | 7.447%
CCN1CCN(C[C@@H]2CN(c3ncc(Cl)cc3Cl)C[C@@H]2CO)CC1 | 12.7% | 4.99% | -26.15%
O=C(c1ccc2c(c1)[nH]c(=O)n2C1CCCC1)N1CCSCC1 | 30.77% | 2.112% | 0%
CCOCC1CN(c2ccc(C)nn2)Cc2cnn(CC)c21 (configuration not stated) | 16.98% | 4.736% | 3.333%
Cn1nccc1C(=O)N1C[C@@H]2CC[C@H](Oc3cccc(F)c3)[C@@H]2C1 | 18% | 0.7987% | 4.494%
COc1c(CNCc2ccc(S(C)(=O)=O)cc2)c(C)nn1C | 17.09% | 1.125% | 4.274%
O=C(Cn1ccnc1)N1C[C@@H]2CC[C@H](Oc3cccc(F)c3)[C@@H]2C1 | 7.292% | 7.337% | 4.255%
CN(C)C(=O)c1ccc(OC2CCOCC2)cc1 | 2.857% | -1.2% | 3.093%
O=C(Cn1c(=O)nc2n1C(=O)N(c1ccccc1)C2)Nc1ccccc1 | 13.33% | 1.343% | -1.653%
Cc1ccc2cc(C(=O)N3CCCN(C)CC3)ccc2n1 | 5.128% | -1.344% | 0.5618%
CCn1ncc(CN(C)C(=O)c2cc(C(F)(F)F)n(C)n2)c1C | 2.5% | 1.18% | 6.211%
COCc1nc2ncc3c(=O)n(-c4ccccc4OC)ccc3n2n1 | 9.574% | 0.4928% | 1.01%
Cc1noc(C)c1C(=O)NCC(C)N(C)C (configuration not stated) | 12.31% | 4.634% | -16.48%
O=C(c1ccco1)N1CCO[C@@H]2CN(c3ccccc3)CC[C@@H]2C1 | 32% | 1.008% | 9.804%
NC(=O)c1ccnc(N2CCCC(CO)(Cc3ccccc3)C2)c1 (configuration not stated) | 10% | -0.3214% | 6.957%
COCC(=O)N1C[C@H]2CNC[C@@]2(C(=O)NCc2cccc3[nH]ccc23)C1 | 10% | 3.813% | 3.191%
O=C(Cc1ccc2c(c1)CCCC2)Nc1cccnc1N1CCSCC1 | 48.19% | 5.375% | 11.6%
Fc1ccc(-c2noc3c2CN(CC2CC2)CC3)cc1F | 27.71% | 8.037% | 21.95%
Cc1cccc(NC2CCN(C(=O)Nc3ccc(F)cc3C)CC2)n1 | 12.5% | -0.8239% | 5.814%
CCc1nc(-c2ccnc(N3CCNCC3)n2)no1 | 14.58% | 2.889% | 8.333%
CN(C)S(=O)(=O)N1CCN(C(=O)c2cc(-c3ccccc3)[nH]n2)CC1 | 11.5% | 3.05% | 8.407%
CCN1CCCC(O)(CNCc2ccc3c(c2)OCO3)C1 (configuration not stated) | 17.65% | 5.134% | 11.11%
COc1c(CNCc2ccc(Cn3cccn3)cc2)c(C)nn1C | 11.11% | 2.624% | 2.041%
CS(=O)(=O)N1C[C@H]2CN(CC3CC3)C(=O)[C@H]2C1 | 13.21% | 3.477% | 11.11%
Cc1nn(C)c2nc(N3CCC(C(O)c4nccn4C)CC3)sc12 (configuration not stated) | 3.125% | 8.23% | 3.352%
Cc1nn2c(=O)/c(=C\c3cccs3)sc2nc1=O | 24.14% | 1.509% | 5.155%
CCS(=O)(=O)N1CCCC(n2nnn(-c3ccccc3)c2=O)C1 (configuration not stated) | 12.95% | -1.224% | 5.747%
CSc1nccc(N2C[C@@H](CN3CCCCC3)[C@@H](CO)C2)n1 | 16.78% | 0.6054% | 6.468%
CCn1c(C)cc(C(=O)N2CCC(Nc3ccc(C)nn3)CC2)c1C | 12.35% | 4.657% | 7.975%
CC(Cn1ccnc1)NC(=O)NCc1cccnc1OC1CCCC1 (configuration not stated) | 13.79% | 1.992% | 6.215%
CCCN(CC)Cn1ncc2cn(-c3ccccc3)nc2c1=O | 8.901% | 1.639% | 4.813%
COC(=O)C(C)(C)NC(=O)C1CC(=O)N(CC(C)C)C1 (configuration not stated) | 11.7% | -12.68% | 11.06%
CN(C)C(=O)CCc1cncc(C2CCCN2Cc2ccccn2)n1 (configuration not stated) | 1.449% | 3.492% | -1.099%
Cc1ncsc1CN1C[C@H](OCC(C)C)[C@H]2OCCC[C@H]21 | 22.37% | 6.592% | 9.783%
Cc1cc(NC(=O)CCN2CCCC2Cn2cccn2)no1 (configuration not stated) | 14.04% | -1.529% | 0.2865%
Cc1nnc2n1CCN(C(C(=O)NC(C)C)c1ccccc1)C2 (configuration not stated) | -2.778% | -2.671% | 4.399%
Cn1cc(C(=O)N2CCC(c3nccn3Cc3ccncc3)CC2)cn1 | 10.4% | -3.199% | -2.513%
CCCNC(=O)c1cc(C(C)C)nc(N2CCCC2)n1 | 17.24% | -2.388% | 0.8696%
COc1cc(C(=O)N(C)Cc2nccn2CC(F)(F)F)ccc1C | 9.589% | -2.276% | 2%
COc1cccc2c1ccn2CCNC(=O)CCNc1ncccn1 | 15.79% | 2.279% | 0.5848%
Cc1nc(CCNc2ccc(-c3nc(C)c(C)c(=O)[nH]3)cn2)cs1 | 16.13% | 8.917% | 8.442%
Cc1cc(S(C)(=O)=O)c(C)c(S(=O)(=O)N2CCN(C)CC2)c1 | 20% | 1.275% | -2.484%
N#CCCN(Cc1cccnc1)C(=O)c1ccc(-n2cnnn2)cc1 | 4.464% | 4.132% | 10.34%
Cc1noc(-c2ccc(N(C)Cc3cccnc3)nc2)n1 | 1.961% | -2.633% | -1.235%
CN(Cc1nc2ccccc2[nH]1)C(=O)CN(C)c1ccc(Cl)cn1 | 13.73% | 1.501% | 8.642%
Cc1noc([C@@H]2CCCN2C(=O)C2CCN(CC(N)=O)CC2)n1 | 5.376% | 4.631% | 2.618%
CCSc1nc(N)c(NC(=O)c2ccc(OC)c(OC)c2)c(=O)[nH]1 | 15.65% | -2.75% | 2.062%
Fc1cnc(N2CCOCC3(CCCN(c4nncs4)C3)C2)nc1 (configuration not stated) | 13.73% | 1.567% | 2.732%
Cc1nc(NC(=O)C(C)N(C)Cc2ccc3c(c2)OCO3)sc1C (configuration not stated) | 1.667% | 1.53% | 2.609%
CCN(C)S(=O)(=O)NCC1(c2ccccc2Br)CC1 | 15.56% | 0.1418% | 8.333%
CCS(=O)(=O)N1Cc2ccnn2CC(c2nc(C)no2)C1 (configuration not stated) | 5.263% | 3.65% | -1.149%
c1ccc(Oc2nccnc2C2CCN(C3CCOCC3)CC2)cc1 | 8.511% | 0.6294% | 6.202%
O=C(Cc1cccs1)N1CCOCC1c1ccccc1 (configuration not stated) | 2% | -2.521% | 0%
Cc1cc(CNC(=O)N2CCCN(Cc3ccccc3)CC2)no1 | -23.6% | 3.069% | 3.008%
Cc1ccc(F)c(S(=O)(=O)NCc2cccc(C(=O)N3CCCC3)c2)c1 | 17.09% | -0.1608% | 1.994%

For reference, 7 entries once more:

With O=C(Cn1c(=O)nc2n1C(=O)N(c1ccccc1)C2)Nc1ccccc1 the screen gave LiHisRS: 13.33%; PfKRS1: 1.343%; TcHisRS: -1.653%.
With Cc1ccccc1C(C(=O)NCCS(C)(=O)=O)N(C)C (configuration not stated) the screen gave LiHisRS: 9.89%; PfKRS1: 3.143%; TcHisRS: 5.155%.
With Cc1nnc2n1CCN(C(C(=O)NC(C)C)c1ccccc1)C2 (configuration not stated) the screen gave LiHisRS: -2.778%; PfKRS1: -2.671%; TcHisRS: 4.399%.
With O=C(c1ccco1)N1CCO[C@@H]2CN(c3ccccc3)CC[C@@H]2C1 the screen gave LiHisRS: 32%; PfKRS1: 1.008%; TcHisRS: 9.804%.
With CC(C)N(C)C(=O)c1ccc(Cl)c(NC(=O)CCN2C(=O)CCC2=O)c1 the screen gave LiHisRS: 14.29%; PfKRS1: 4.774%; TcHisRS: 1.538%.
With Cc1noc(C)c1C(=O)NCC(C)N(C)C (configuration not stated) the screen gave LiHisRS: 12.31%; PfKRS1: 4.634%; TcHisRS: -16.48%.
With CCc1nc(-c2ccnc(N3CCNCC3)n2)no1 the screen gave LiHisRS: 14.58%; PfKRS1: 2.889%; TcHisRS: 8.333%.

The values are deposited in ChEMBL (CHEMBL3988442, “University of Dundee, Small-Polar-MMV Screening Library” (2021)).